Source: PubChem BioAssay AID504467 (National Center for Advancing Translational Sciences (NCATS), 2011)
In all, about 330,000 compounds went through this assay and about 7,700 (2.3%) were called active. The shares of active, inactive and inconclusive entries below differ from those in the screen. The call rests on the fitted dose curve; in most records, active means well fitted inhibition curve with a large enough effect; inconclusive means small, poorly fitted or top-dose-only effect, or effect the other way; inactive means flat fitted curve, though single readings scatter. A potency beside an inconclusive call is a rough fit, not a confirmed value.

experiment: qHTS screen for small molecules that inhibit ELG1-dependent DNA repair in human embryonic kidney (HEK293T) cells expressing luciferase-tagged ELG1; conditions: HEK293T ELG1-luciferase reporter, luminescence, 16 h, DNA damage induced by 5-fluorouridine; activity change, negative = inhibition: at 46.1 µM (top of the series); further: nearly all actives have a fitted effect of over 55% in size
Outline: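 Quantitative HTS, concentration-response format. 2,000 cells/well co-treated with 5-fluorouridine and compound, 16 hr in 5% CO2 at 37 °C; ONE-Glo luminescence read after 30 min.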
On the % scale 0 is the no-effect control and ±100 the full control effect; potency means the concentration at half of the fitted maximal effect.

Row | SMILES | Potency | activity change, negative = inhibition
1 | O=c1oc2ccccc2c2[nH]ccc12 | inconclusive: 29.1 µM [activator, partial curve, poor fit] | –
2 | CN(C)c1ccnc2sc3c(=O)n(-c4ccccc4)cnc3c12 | active: 11.6 µM | –
3 | CC(C)(C)OC(=O)NC(CCNC=C1C(=O)OC(C)(C)OC1=O)C(=O)O (stereo not drawn) | inconclusive: 3.66 µM [activator, partial curve, poor fit] | –
4 | O=C(Nc1nc2cc(Cl)ccc2s1)C1CCCN(S(=O)(=O)c2cccc3cccnc23)C1 (stereo not drawn) | active: 16.4 µM | –
5 | CCn1c(SCC(=O)Nc2ccccc2N2CCCCC2)nc2c1c(=O)n(C)c(=O)n2C | active: 18.4 µM | –
6 | O=C(NCCCN1CCCCC1)c1ccc2c(c1)ncn2C1CCCC1 | inconclusive: 29.1 µM [activator, partial curve, poor fit] | –
7 | CCN1CCN(CCC(=O)Nc2cccc(OC)c2)CC1 | – | inactive: -25.3%
8 | COc1ccccc1C1CCN(C(=O)C2CCCCC2)CC1 | inconclusive: 16.4 µM [inhibitor, single point] | –
9 | Clc1ccc(-c2nnc(SCc3ccon3)o2)c(Cl)c1 | inconclusive: 2.59 µM [activator, full curve] | –
10 | CC(=O)Nc1cccc(C(=O)OCC(=O)NCc2cc(C)c(O)c(C)c2)c1 | inconclusive: 16.4 µM [activator, single point] | –
11 | O=C1/C(=C/c2ccc(F)cc2)SC(=S)N1Nc1ncc(C(F)(F)F)cc1Cl | inconclusive: 20.6 µM [activator, single point] | –
12 | CN1C(=O)/C(=C/c2ccc(O)c([N+](=O)[O-])c2)N(C)C1=S | inconclusive: 18.3 µM [activator, single point] | –
13 | CCc1ccc(NC(=O)c2cnn3ccccc23)cc1 | inconclusive: 0.259 µM [activator, full curve] | –
14 | O=S(=O)(c1cccc(-c2nc3n(n2)Cc2ccccc2-3)c1)N1CCCCC1 | – | inactive: 3.99%
15 | CC(NC(=O)CCc1nnc(C2(c3ccc(Cl)cc3)CCC2)o1)C1CC1 (stereo not drawn) | – | inconclusive: 15.5% [activator]
16 | Cc1c(CC(=O)O)c(=O)oc2cc3c(cc12)CCC(C)(C)O3 | – | inactive: -5.32%
17 | O=C(OCC(=O)N1CCCc2ccccc21)c1ccc(Cl)nc1 | – | inactive: -0.98%
18 | CC(Sc1nnnn1-c1ccc(O)cc1)C(=O)NNC(=O)c1ccc(F)cc1 (stereo not drawn) | – | inactive: -3.18%
19 | Clc1cccc(Nc2nc(-c3cccnc3)cs2)c1 | inconclusive: 4.61 µM [activator, partial curve] | –
20 | CCOC(=O)C1(CCOc2ccccc2)CCN(Cc2cccc(OC)c2OC)CC1 | active: 11.6 µM | –
21 | CCN1/C(=C\C(C)=O)Sc2ccc(OC)cc21 | active: 23.1 µM | –
22 | COC(=O)c1c(NC(C)=O)sc2c1CCCC2 | – | inactive: 23.5%
23 | O=C(NCCN1CCOCC1)c1ccc2c(c1)N(Cc1ccccc1)CCS2 | – | inactive: -3.39%
24 | CCOC(=O)c1sc(N(Cc2ccccc2)C(=O)CCl)nc1C | inconclusive: 16.4 µM [activator, single point] | –
25 | CC1(C)CC(=O)c2sc(NC(=O)c3ccco3)nc2C1 | inconclusive: 18.4 µM [activator, partial curve] | –

Row | SMILES | Potency | activity change, negative = inhibition
26 | Cc1onc(-c2ccccc2Cl)c1C(=O)OCc1nnc(-c2ccccc2)o1 | inconclusive: 29.1 µM [inhibitor, single point] | –
27 | O=C(CCc1ccccn1)NC1CCCc2c1cnn2-c1ccc(F)cc1F (stereo not drawn) | inconclusive: 20.6 µM [inhibitor, partial curve] | –
28 | COc1ccc(OC)c(NC(=S)NCc2ccccc2OC)c1 | – | inactive: -7.87%
29 | Cc1ccc(O)c(-c2cc(C(=O)Nc3cccnc3)[nH]n2)c1 | inconclusive: 2.59 µM [activator, full curve] | –
30 | Cc1ccc(NC(=O)COc2ncnc3cc([N+](=O)[O-])ccc23)cc1S(=O)(=O)N1CCOCC1 | inconclusive: 18.3 µM [inhibitor, single point] | –
31 | O=[N+]([O-])c1ccc(NCc2ccc(Cl)cc2)nc1 | inconclusive: 18.3 µM [activator, partial curve] | –
32 | C#CCn1cc(Cl)cc(C(=O)Nc2ccccc2)c1=O | inconclusive: 20.6 µM [activator, partial curve] | –
33 | CCN1CCN(C(=O)/C(C#N)=C/c2ccc(OC(F)F)cc2)CC1 | – | inactive: -7.02%
34 | Oc1ccc(C(c2nnnn2C2CCCC2)N2CCc3ccccc3C2)cc1 (stereo not drawn) | – | inactive: 17.5%
35 | C[C@H]1CN(S(=O)(=O)c2c(F)cccc2F)CCN1S(=O)(=O)c1ccc2c(c1)OCCO2 | – | inactive: -16.7%
36 | CC1(c2ccc(OCC#N)cc2)C=C(c2ccc(OCC#N)cc2)n2nc(C(F)(F)F)nc2N1 (stereo not drawn) | inconclusive: 29.1 µM [inhibitor, single point] | –
37 | COc1ccccc1/C=C/c1ccc2cccc(O)c2n1 | inconclusive: 18.3 µM [activator, partial curve] | –
38 | COC(=O)c1c(N)n(-c2ccc(NC(C)=O)cc2)c2nc3ccccc3nc12 | inconclusive: 16.4 µM [inhibitor, partial curve, poor fit] | –
39 | CSc1ccc(/C=C(\C#N)C(=O)Nc2cccc(C)c2)cc1 | inconclusive: 20.6 µM [activator, partial curve] | –
40 | COCCCn1c2nc3ccccc3nc2c2c(=O)n(-c3ccccc3OC)cnc21 | inconclusive: 18.4 µM [inhibitor, partial curve] | –
41 | Cc1ccc(C(=O)NCCNC(=O)Cc2ccccc2)cn1 | – | inactive: 2.31%
42 | C=CC[C@H](CC(=O)NCCO)C(=O)NC[C@@H](OC(=O)[C@H](CC=C)CC(=O)OC(C)(C)C)c1ccccc1 | – | inactive: -4.22%
43 | CCc1c(C(=O)Nc2ccc(S(=O)(=O)N3CCOCC3)cc2)csc1C | – | inactive: -29.8%
44 | COc1ccc(S(=O)(=O)N2CCCCCC2)cc1NS(=O)(=O)c1cc(C(=O)O)cc(C)c1C | – | inactive: 14.8%
45 | CCc1ccc(CN(C)Cc2nc(Cc3ccc(OC)c(OC)c3)no2)nc1 | – | inactive: -7.38%
46 | FC(F)(F)c1ccccc1-n1c(-c2ccco2)n[nH]c1=S | inconclusive: 16.4 µM [activator, partial curve] | –
47 | CCCc1cnc(N2CCN(C(=S)NC)CC2)nc1 | inconclusive: 16.4 µM [activator, partial curve] | –
48 | N#Cc1c2n(c3c(=S)nc[nH]c13)CCCCC2 | inconclusive: 25.9 µM [inhibitor, single point] | –
49 | O=C(COC(=O)c1ccccc1[N+](=O)[O-])NCCCc1ccccc1 | – | inactive: 4.32%
50 | N#Cc1c2ccc(O)cc2n2ccccc12 | active: 4.11 µM | –

Two of the compounds above, tab-delimited.
Row	SMILES	Potency	activity change, negative = inhibition
10	CC(=O)Nc1cccc(C(=O)OCC(=O)NCc2cc(C)c(O)c(C)c2)c1	inconclusive: 16.4 µM [activator, single point]	–
11	O=C1/C(=C/c2ccc(F)cc2)SC(=S)N1Nc1ncc(C(F)(F)F)cc1Cl	inconclusive: 20.6 µM [activator, single point]	–

(list continues)

Row | SMILES | Potency | activity change, negative = inhibition
51 | C/C(=N\NC(=O)CSc1nc(C)[nH]c1[N+](=O)[O-])c1ccc(F)cc1 | inconclusive: 29.1 µM [activator, single point] | –
52 | CN(c1ccc(OCC(=O)N2CCN(c3ccc(F)cc3)CC2)cc1)S(=O)(=O)c1cccs1 | inconclusive: 20.6 µM [inhibitor, partial curve, poor fit] | –
53 | Cc1ccc(-c2ocnc2C(=O)Nc2ccccc2C(=O)N2CCCC2)cc1 | inconclusive: 23.1 µM [inhibitor, single point] | –
54 | O=c1[nH]c(=O)n(Cc2ccco2)c2c1C(C(F)(F)F)(C(F)(F)F)N=C(C1CCCCC1)N2 | – | inactive: 13.9%
55 | Cc1cccc(N2C(=O)CC(Sc3nc(C)c4c(n3)CCCC4)C2=O)c1 (stereo not drawn) | – | inactive: 0.4%
56 | Oc1ccccc1Nc1nc(NCc2ccccc2)c2ccccc2n1 | inconclusive: 29.1 µM [inhibitor, single point] | –
57 | CC(C)(C)c1ccc(OCCNC(=S)Nc2ccccc2)cc1 | – | inactive: -16.8%
58 | Cc1ccc(NC(=S)NC(=O)c2ccccc2)cc1NC(=S)NC(=O)c1ccccc1 | inconclusive: 18.3 µM [activator, partial curve] | –
59 | Cc1cc(/C=C(\C#N)C(=O)NC2CCCCCC2)c(C)[nH]1 | inconclusive: 16.4 µM [activator, partial curve] | –
60 | CCOC(=O)c1csc(NC(=O)c2cccs2)n1 | inconclusive: 13 µM [activator, partial curve] | –
61 | Cc1ccc2[nH]c(=O)c(CN(CCCO)S(=O)(=O)c3cccc4nsnc34)cc2c1 | inconclusive: 25.9 µM [inhibitor, partial curve, poor fit] | –
62 | CCOc1ccc(-c2nnc3ccc(SCC(=O)N4CCCCC4)nn23)cc1 | inconclusive: 9.2 µM [inhibitor, partial curve, poor fit] | –
63 | Cc1cc([N+](=O)[O-])cc(/C=N\NC(=O)C2COc3ccccc3O2)c1O (stereo not drawn) | active: 20.6 µM | –
64 | CC(=O)Nc1ccc(Nc2nc(C)c([N+](=O)[O-])c(N(C)c3ccccc3)n2)cc1 | active: 20.6 µM | –
65 | CCN(CC)S(=O)(=O)c1ccc(NC(=O)c2cc(-c3cccs3)nc3ccccc23)cc1 | inconclusive: 2.91 µM [inhibitor, full curve] | –
66 | CCCCCNC1=CC(=O)CC(c2ccccc2)C1 (stereo not drawn) | – | inactive: -29.4%
67 | Cc1cc(N2CCCCC2)n2ncc(-c3ccc(Cl)cc3)c2n1 | inconclusive: 2.06 µM [activator, partial curve] | –
68 | CCn1cc(C(=O)N2CCN(c3ccccc3OC)CC2)c2cc(OC)c(OC)cc2c1=O | inconclusive: 20.6 µM [inhibitor, partial curve, poor fit] | –
69 | COC(=O)c1ccc(CN(c2ccc(C)cc2)S(=O)(=O)c2ccc3c(c2)OCCO3)o1 | active: 20.6 µM | –
70 | COC(=O)c1ccccc1NC(=O)NC1CCCCC1 | inconclusive: 20.6 µM [activator, partial curve] | –
71 | Cc1ccccc1C(=O)NCC(=O)OCCCOC(=O)CNC(=O)c1ccccc1C | – | inactive: 8.49%
72 | Fc1ccc(Cn2ccc(-c3cnc(-c4ccccc4)s3)n2)cc1 | inconclusive: 4.11 µM [activator, full curve] | –
73 | CC(=O)N1CCc2ccc(S(=O)(=O)N3CCc4ccccc43)cc21 | inconclusive: 29.1 µM [inhibitor, single point] | –

Ordered by heavy-atom count (descending): part of the list above.
Row | SMILES | Potency | activity change, negative = inhibition
56 | Oc1ccccc1Nc1nc(NCc2ccccc2)c2ccccc2n1 | inconclusive: 29.1 µM [inhibitor, single point] | –
73 | CC(=O)N1CCc2ccc(S(=O)(=O)N3CCc4ccccc43)cc21 | inconclusive: 29.1 µM [inhibitor, single point] | –
59 | Cc1cc(/C=C(\C#N)C(=O)NC2CCCCCC2)c(C)[nH]1 | inconclusive: 16.4 µM [activator, partial curve] | –
